Assay results: PMC3438196
These are yes or no findings as the source states them, for the method shown. Some binding calls cover weakened binding; strength is not graded here.

Legend:
[1] = molecular target: Apobec3G MAPPIT bait (pCEL-Apobec3G) (human), Q9HC16; assay: two-hybrid; MAPPIT (mammalian two-hybrid) in intact HEK293T cells: bait on the EpoR/leptin receptor chimera, prey on gp130 fragments, pXP2d2-rPAP1-luciferase reporter; fold induction of luciferase, Epo-stimulated (10 ng/ml hEpo) over unstimulated; 6-well or 96-well calcium phosphate transfection; conditions: remark: other sources report otherwise
[2] = molecular target: Apobec3G-GFP MAPPIT bait (pCEL-Apobec3G-GFP) (human), Q9HC16; assay: two-hybrid; random mutagenesis MAPPIT: pCEL-Apobec3G-GFP baits (wild type, W127A, error prone PCR mutants), automated 384-well transfection of HEK293T cells, 1.5 ng bait and 6.5 ng prey plasmid per well, overnight 10 ng/ml hEpo; relative MAPPIT signal as % of the median of the six wild type baits on the plate; conditions: remark: other sources report otherwise

B1: Apobec3G MAPPIT prey (pMG2-Apobec3G), Q9HC16 1-384 (protein)
chain: MKPHFRNTVERMYRDTFSYNFYNRPILSRRNTVWLCYEVKTKGPSRPPLDAKIFRGQVYSELKYHPEMRFFHWFSKWRKLHRDQEYEVTWYISWSPCTKCTRDMATFLAEDPKVTLTIFVARLYYFWDPDYQEALRSLCQKRDGPRATMKIMNYDEFQHCWSKFVYSQRELFEPWNNLPKYYILLHIMLGEILRHSMDPPTFTFNFNNEPWVRGRHETYLCYEVERMHNDTWVLLNQRRGFLCNQAPHKHGFLEGRHAELCFLDVIPFWKLDLDQDYRVTCFTSWSPCFSCAQEMAKFISKNKHVSLCIFTARIYDDQGRCQEGLRTLAEAGAKISIMTYSEFKHCWDTFVDHQGCPFQPWDGLDEHSQDLSGRLRAILQNQEN
In the case of B1, the binding [1] is reported as “binds” and the binding [2] is reported as “binds”.
